Experimental findings from patent publication US20170258948A1 (Bristol-Myers Squibb, published 2017) are described below.

Amino acid sequences for entries named in this document (tags omitted). Residues count along the entry.
UniProt Q9NZQ7, residues 19-290: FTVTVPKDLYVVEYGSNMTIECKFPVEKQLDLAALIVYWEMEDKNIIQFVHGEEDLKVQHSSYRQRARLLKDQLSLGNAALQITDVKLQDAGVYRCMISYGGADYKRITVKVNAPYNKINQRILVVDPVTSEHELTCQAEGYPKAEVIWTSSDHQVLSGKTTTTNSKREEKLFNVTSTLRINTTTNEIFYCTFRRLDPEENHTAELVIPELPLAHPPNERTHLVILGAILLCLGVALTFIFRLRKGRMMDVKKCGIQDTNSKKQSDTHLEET

Experiment [1] deals with human PD-L1 expressed on cells (hPD-L1-positive L2987 human lung carcinoma cells; L2987 xenograft and human lung tumor tissue sections) (human) (UniProt Q9NZQ7). Briefly: competition with the 64Cu-NODAGA-E01 tracer on L2987 cells, one concentration of cold E01 (450 nM per paragraph 474, not printed on the sheet), gamma counter.
Experiment [2] has the same target. Briefly: in vitro autoradiography of tissue sections.
Experiment [3] has the same target. In words: competition with 0.25 nM 18F-DBCO-A02 tracer, in vitro autoradiography of L2987 xenograft and human lung tumor sections, cold A02 at 0.025, 0.25, 2.5 and 25 nM.
Experiment [4] shares this target. Briefly: in vitro autoradiography, cold A02 at 0.025, 0.25, 2.5 and 25 nM against 0.25 nM ^18F-A02 as competitor.
For experiment [5] the target is unchanged. In words: in vivo PET time-activity curves of tumor regions in mice with bilateral L2987 and HT-29 xenografts, 0 to 120 min after tracer injection.

No constants are given. Whether binding was seen depends on the method and setting. Some entries that bind do so weakly or less than the wild type.

B1: cold (unlabeled) E01 Adnectin (designed binder)
chain: EVVAATPTSLLISWRAQLSPSFYYRITYGETGGNSPVQEFTVPNDVMTATISGLKPGVDYTITVYAVTTHGVYFYSPISINYRT
With B1, in experiment [1], the binding result was “binds”.

B2: cold (unlabeled) A02 Adnectin (designed binder)
chain: EVVAATPTSLLISWSYDGPIDRYYRITYGETGGNSPVQEFTVPPDQKTATISGLKPGVDYTITVYAVRLEEAHYNREFPISINYRT
As for B2, the binding entry in experiment [2], in experiment [3] and in experiment [4] was “binds” each time.

B3: ^64Cu-A02-NODAGA (designed binder)
chain: GVSDVPRDLEVVAATPTSLLISWSYDGPIDRYYRITYGETGGNSPVQEFTVPPDQKTATISGLKPGVDYTITVYAVRLEEAHYNREFPISINYRTPC
modifications: C-terminal cysteine (of the added PC) linked to maleimide-NODAGA chelating ^64Cu
For B3, the binding result in experiment [5] is “binds”.
